Patent US20040102364A1, “Backbone cyclized radiolabelled somatostatin analogs” (priority 2001, published 2004)
For at least one compound, name, drawing or mass did not settle the structure.

Amino acid sequences for entries named in this document (tags omitted). A change or cut given only in a name is not applied to a line headed by its entry.
UniProt P30874: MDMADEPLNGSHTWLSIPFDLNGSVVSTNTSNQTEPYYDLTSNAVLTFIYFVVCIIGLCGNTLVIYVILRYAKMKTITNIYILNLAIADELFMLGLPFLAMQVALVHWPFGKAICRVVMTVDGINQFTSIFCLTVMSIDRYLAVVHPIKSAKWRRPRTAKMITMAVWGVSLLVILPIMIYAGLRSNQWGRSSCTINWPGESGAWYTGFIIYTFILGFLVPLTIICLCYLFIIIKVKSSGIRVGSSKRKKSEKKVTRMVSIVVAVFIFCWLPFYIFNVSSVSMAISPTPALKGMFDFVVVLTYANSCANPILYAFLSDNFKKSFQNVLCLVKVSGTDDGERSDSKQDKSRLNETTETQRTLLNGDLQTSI

target: SST-R2 (Homo sapiens, UniProt P30874); assay: Inhibition of SRIF binding to SST-R2 (species not stated); settings: SE log(IC50) in a column of its own, read-out: IC50 Screen IC50
Method: The SST analogs were tested for their potency in inhibition of the binding of ^125I-Tyr^11-SRIF (based on the method described by Raynor et. al., Molecular Pharmacology 43: 838, 1993) to membrane preparations expressing the transmembranal SST receptors (SST-R1, 2, 3, 4 or 5). The receptor preparations used for these tests were either from the cloned human receptors selectively and stably expressed in Chinese Hamster Ovary (CHO) cells or from cell lines naturally expressing the SST-Rs. […] The binding reactions were filtered, the filters were washed and the bound radioactivity was counted in β counter after addition of scintillation solution. […]

Point of comparison: C[C@@H](O)[C@@H]1NC(=O)[C@H](CCCCN)NC(=O)[C@@H](Cc2c[nH]c3ccccc23)NC(=O)[C@H](Cc2c[nH]c3ccccc23)NC(=O)[C@H](Cc2ccccc2)NC(=O)[C@@H](NC(=O)CCNC(=O)CN(CCN(CCN(CC(=O)O)CC(=O)O)CC(=O)O)CC(=O)O)CCNC(=O)CCCN(CC(N)=O)C(=O)[C@H](Cc2ccccc2)NC1=O [PTR 3339, In-DTPA-b-Ala-Dab*-Phe-Trp-(D)Trp-Lys-Thr-Phe-GlyC3*-NH2], IC50 11 nM. Against it:
- C[C@@H](O)[C@@H]1NC(=O)[C@H](CCCCN)NC(=O)[C@@H](Cc2c[nH]c3ccccc23)NC(=O)[C@H](Cc2c[nH]c3ccccc23)NC(=O)[C@H](Cc2ccccc2)NC(=O)[C@@H](NC(=O)CNC(=O)CN(CCN(CCN(CC(=O)O)CC(=O)O)CC(=O)O)CC(=O)O)CCNC(=O)CCCN(CC(N)=O)C(=O)[C@H](Cc2ccccc2)NC1=O [PTR 3319, In-DTPA-Gly-Dab*-Phe-Trp-(D)Trp-Lys-Thr-Phe-GlyC3*-NH2] — 1.5-fold lower, 7.3 nM
- C[C@@H](O)[C@@H]1NC(=O)[C@H](CCCCN)NC(=O)[C@@H](Cc2c[nH]c3ccccc23)NC(=O)[C@H](Cc2c[nH]c3ccccc23)NC(=O)[C@H](Cc2ccccc2)NC(=O)[C@@H](NC(=O)CN(CCN(CCN(CC(=O)O)CC(=O)O)CC(=O)O)CC(=O)O)CCNC(=O)CCCN(CC(N)=O)C(=O)[C@H](Cc2ccccc2)NC1=O [PTR 3337, In-DTPA-Dab*-Phe-Trp-(D)Trp-Lys-Thr-Phe-GlyC3*-NH2] — 2.4-fold lower, 4.6 nM
- C[C@@H](O)[C@@H]1NC(=O)[C@H](CCCCN)NC(=O)[C@@H](Cc2c[nH]c3ccccc23)NC(=O)[C@H](Cc2c[nH]c3ccccc23)NC(=O)[C@H](Cc2ccccc2)NC(=O)[C@@H](NC(=O)CCCNC(=O)CN(CCN(CCN(CC(=O)O)CC(=O)O)CC(=O)O)CC(=O)O)CCNC(=O)CCCN(CC(N)=O)C(=O)[C@H](Cc2ccccc2)NC1=O [PTR 3341, In-DTPA-GABA-Dab*-Phe-Trp-(D)Trp-Lys-Thr-Phe-GlyC3*-NH2] — within 1.5-fold, 16 nM
